# Target: T1, ZmSIRK1 (ZmSIRK1^737-1045) (Zea mays, UniProt K7VIQ3)
# By UniProt entry, the sequences of proteins in these tests, tags left out.
# UniProt K7VIQ3, entry or part of it: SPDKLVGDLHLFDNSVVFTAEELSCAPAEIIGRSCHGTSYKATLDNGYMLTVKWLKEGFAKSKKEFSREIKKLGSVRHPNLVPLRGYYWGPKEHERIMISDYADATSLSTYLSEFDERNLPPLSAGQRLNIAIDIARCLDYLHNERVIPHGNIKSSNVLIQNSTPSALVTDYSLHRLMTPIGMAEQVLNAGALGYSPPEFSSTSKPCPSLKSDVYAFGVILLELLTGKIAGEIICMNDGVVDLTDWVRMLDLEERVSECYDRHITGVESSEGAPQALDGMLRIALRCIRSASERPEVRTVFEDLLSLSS
# T1 construct: gene ZEAMMB73_Zm00001d047570; kinase domain Ser737-Ser1045 (full length 1045 aa; KD 762-1040), E. coli BL21(DE3)-R3-pRARE2, pNIC28a-Bsa4, 6xHis tag removed by TEV; forward primer encodes S737-V-V-F-T-A-E (translated); motifs 907DYS909, 933PPE935; model residues 744-972, 977-1000, 1009-1045
# Assay: isothermal titration calorimetry
# Type: binding
compound,measurement,value
CC(C)n1nc(-c2cc3cc(O)ccc3[nH]2)c2c(N)ncnc21 [PP242],Kd,460 nM

# Source: article PMC5445127 (Frontiers in Plant Science, 2017)
